We go through two molecules from patent publication US20230175069A1, “COMPOSITIONS AND METHODS FOR DETECTING GENE FUSIONS OF ESR1 AND CCDC170 FOR DETERMINING INCREASED RESISTANCE TO ENDOCRINE THERAPY AND FOR CANCER TREATMENT” (UNIVERSITY OF PITTSBURGH-OF THE COMMONWEAL TH SYSTEM OF …, priority 2020, published 2023).

By UniProt entry, the sequences of proteins in these tests, tags left out. Where a name states a change or a piece, a line headed by the entry shows the natural chain unless it says otherwise.
UniProt P21860: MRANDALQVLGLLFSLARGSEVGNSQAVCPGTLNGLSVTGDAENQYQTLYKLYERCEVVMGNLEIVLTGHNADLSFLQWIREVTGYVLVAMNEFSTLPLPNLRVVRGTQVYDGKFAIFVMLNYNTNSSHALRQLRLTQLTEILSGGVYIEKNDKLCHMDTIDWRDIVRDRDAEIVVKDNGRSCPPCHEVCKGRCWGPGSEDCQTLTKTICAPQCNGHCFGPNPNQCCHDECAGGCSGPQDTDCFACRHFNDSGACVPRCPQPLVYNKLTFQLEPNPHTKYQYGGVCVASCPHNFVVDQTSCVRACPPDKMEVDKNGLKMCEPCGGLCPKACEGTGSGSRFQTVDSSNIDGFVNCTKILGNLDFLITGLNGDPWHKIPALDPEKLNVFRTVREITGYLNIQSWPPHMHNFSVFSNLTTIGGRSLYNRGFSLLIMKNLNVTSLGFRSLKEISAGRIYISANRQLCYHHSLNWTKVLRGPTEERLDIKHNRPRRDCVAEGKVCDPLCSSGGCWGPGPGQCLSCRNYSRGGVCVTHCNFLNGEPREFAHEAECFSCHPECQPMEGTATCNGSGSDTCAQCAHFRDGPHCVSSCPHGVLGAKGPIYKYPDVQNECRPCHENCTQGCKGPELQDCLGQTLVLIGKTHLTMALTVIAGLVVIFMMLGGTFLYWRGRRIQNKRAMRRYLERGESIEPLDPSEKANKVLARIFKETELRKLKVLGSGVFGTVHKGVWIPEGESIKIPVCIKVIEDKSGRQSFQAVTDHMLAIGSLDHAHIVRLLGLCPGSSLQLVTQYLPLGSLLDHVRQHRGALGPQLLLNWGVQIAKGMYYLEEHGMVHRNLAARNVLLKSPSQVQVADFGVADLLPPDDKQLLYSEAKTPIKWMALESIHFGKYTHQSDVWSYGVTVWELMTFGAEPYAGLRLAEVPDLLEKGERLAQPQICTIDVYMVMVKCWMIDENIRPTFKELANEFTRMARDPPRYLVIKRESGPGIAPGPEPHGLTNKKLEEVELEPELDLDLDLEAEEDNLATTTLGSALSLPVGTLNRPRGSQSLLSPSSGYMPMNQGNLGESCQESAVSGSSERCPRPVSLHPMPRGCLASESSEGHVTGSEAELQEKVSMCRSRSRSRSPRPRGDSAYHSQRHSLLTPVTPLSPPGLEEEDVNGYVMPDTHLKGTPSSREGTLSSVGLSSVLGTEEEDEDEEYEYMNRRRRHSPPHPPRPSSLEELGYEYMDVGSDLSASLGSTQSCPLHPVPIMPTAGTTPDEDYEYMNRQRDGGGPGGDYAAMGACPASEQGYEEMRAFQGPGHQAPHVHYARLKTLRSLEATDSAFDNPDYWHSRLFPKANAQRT

The target in experiment [1] is T1, Yc-E2-E10 (E2-E10 ORF fused to a C-terminal fragment of YFP) (human) (UniProt Q8IYT3).
T1 sequence: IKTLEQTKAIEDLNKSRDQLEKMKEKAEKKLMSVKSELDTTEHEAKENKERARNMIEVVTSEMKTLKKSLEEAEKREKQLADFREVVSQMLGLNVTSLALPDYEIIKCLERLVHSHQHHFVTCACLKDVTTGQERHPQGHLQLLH
Put plainly: BiFC assay of Yn- and Yc-tagged E2-E10 in HT1080 cells, flow cytometry (FIG. 7C).

Experiment [2] addresses T1, Yc-E2-E10 (E2-E10 ORF fused to a C-terminal fragment of YFP) (human). Put plainly: Bimolecular Fluorescence Complementation (BiFC) in co-transfected HT1080 cells, YFP read by flow cytometry.
In experiment [3] the target is HER3 (Erb-B2 Receptor Tyrosine Kinase 3) (human) (UniProt P21860). Put plainly: immunoprecipitation with anti-HER3 antibody from T47D cells expressing wtCCDC170 or E2-E10, immunoblot (FIG. 7A). For orientation: In western blotting, separated proteins are transferred to a membrane and probed.
Experiment [4] has the same target. Put plainly: co-immunoprecipitation with anti-HER3 antibody from T47D cells expressing E2-E10, western blot with anti-CCDC170 antibody.

These are yes or no findings as the source states them, for the method shown. For some of these results: Binding seen in cells or lysates may run through a third protein. Some results given as binding are weak or reduced against the parent protein; the word gives no strength. Tags and fused reporters may be left off the sequences shown.

B1: Yn-E2-E10 (E2-E10 ORF fused to an N-terminal fragment of YFP) (protein, not shown: large carriers)
chain: T1 sequence
With B1, the binding result in experiment [1] and in experiment [2] was “binds” throughout.

B2: ΔCCDC170 protein encoded by the E2-E10 ESR1-CCDC170 fusion variant (protein)
chain: T1 sequence
For the molecule B2, the binding result in experiment [3] and in experiment [4] was “binds” in each case.
